The supplement of paper PMC7666118
Some of the results follow.

The chains behind the UniProt entries cited, without tags or fusion partners. Where a name states a change or a piece, a line headed by the entry shows the natural chain unless it says otherwise.
UniProt P12235: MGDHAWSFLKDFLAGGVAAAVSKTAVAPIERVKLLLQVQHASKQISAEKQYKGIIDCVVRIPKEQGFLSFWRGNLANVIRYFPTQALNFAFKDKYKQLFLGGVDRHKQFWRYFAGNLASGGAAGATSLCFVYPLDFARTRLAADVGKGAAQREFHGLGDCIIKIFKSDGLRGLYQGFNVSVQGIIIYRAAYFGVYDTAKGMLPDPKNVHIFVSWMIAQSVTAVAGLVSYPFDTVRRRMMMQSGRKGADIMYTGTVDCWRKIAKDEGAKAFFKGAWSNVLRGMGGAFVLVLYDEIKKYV
UniProt Q9NXA8: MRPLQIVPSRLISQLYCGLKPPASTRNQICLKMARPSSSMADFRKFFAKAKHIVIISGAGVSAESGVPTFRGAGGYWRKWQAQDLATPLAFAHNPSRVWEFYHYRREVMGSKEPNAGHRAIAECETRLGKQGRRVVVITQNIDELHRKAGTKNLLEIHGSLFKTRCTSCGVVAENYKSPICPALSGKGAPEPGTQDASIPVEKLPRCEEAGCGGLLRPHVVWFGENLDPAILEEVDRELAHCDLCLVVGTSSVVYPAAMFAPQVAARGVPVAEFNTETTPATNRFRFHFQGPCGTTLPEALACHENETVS
UniProt Q8NHU3: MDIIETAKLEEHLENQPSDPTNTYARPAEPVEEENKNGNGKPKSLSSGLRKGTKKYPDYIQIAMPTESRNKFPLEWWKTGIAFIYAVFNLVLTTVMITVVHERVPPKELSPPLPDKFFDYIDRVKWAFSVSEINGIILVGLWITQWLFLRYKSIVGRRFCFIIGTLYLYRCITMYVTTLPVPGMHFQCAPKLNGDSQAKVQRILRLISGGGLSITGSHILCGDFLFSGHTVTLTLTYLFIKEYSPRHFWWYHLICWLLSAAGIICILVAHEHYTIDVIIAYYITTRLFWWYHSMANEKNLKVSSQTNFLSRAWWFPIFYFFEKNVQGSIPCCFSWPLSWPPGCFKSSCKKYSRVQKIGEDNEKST
UniProt Q8WUX1, whole entry: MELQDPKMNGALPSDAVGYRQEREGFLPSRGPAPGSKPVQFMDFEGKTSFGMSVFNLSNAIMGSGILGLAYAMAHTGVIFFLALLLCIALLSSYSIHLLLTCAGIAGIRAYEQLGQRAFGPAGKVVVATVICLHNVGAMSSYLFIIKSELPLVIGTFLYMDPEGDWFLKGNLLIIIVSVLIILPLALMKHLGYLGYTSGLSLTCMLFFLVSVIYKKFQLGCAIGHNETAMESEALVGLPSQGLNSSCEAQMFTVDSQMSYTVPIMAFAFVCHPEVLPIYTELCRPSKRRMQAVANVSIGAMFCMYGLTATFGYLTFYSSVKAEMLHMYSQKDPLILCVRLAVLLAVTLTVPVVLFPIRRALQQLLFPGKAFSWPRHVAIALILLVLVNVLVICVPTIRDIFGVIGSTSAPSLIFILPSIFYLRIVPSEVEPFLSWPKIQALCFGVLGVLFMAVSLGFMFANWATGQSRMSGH
UniProt O43765: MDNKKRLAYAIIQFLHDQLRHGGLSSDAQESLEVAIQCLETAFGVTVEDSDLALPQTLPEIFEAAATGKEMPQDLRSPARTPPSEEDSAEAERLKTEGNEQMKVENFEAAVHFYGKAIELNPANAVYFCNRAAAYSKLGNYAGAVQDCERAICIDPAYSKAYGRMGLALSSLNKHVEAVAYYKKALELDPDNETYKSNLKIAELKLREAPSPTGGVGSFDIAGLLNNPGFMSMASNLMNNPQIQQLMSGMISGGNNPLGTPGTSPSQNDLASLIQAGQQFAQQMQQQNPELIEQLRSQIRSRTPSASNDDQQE
UniProt Q8IXU6: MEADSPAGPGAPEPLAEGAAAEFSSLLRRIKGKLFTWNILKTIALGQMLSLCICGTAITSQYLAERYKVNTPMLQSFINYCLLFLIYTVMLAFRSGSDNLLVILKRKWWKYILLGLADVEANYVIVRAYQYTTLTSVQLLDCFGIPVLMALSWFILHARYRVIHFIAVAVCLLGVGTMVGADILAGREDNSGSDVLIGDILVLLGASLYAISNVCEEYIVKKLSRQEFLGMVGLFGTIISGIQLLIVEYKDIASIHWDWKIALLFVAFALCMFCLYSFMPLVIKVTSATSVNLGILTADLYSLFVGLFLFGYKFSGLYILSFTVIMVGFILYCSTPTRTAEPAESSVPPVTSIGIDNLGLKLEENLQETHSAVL
UniProt Q12874: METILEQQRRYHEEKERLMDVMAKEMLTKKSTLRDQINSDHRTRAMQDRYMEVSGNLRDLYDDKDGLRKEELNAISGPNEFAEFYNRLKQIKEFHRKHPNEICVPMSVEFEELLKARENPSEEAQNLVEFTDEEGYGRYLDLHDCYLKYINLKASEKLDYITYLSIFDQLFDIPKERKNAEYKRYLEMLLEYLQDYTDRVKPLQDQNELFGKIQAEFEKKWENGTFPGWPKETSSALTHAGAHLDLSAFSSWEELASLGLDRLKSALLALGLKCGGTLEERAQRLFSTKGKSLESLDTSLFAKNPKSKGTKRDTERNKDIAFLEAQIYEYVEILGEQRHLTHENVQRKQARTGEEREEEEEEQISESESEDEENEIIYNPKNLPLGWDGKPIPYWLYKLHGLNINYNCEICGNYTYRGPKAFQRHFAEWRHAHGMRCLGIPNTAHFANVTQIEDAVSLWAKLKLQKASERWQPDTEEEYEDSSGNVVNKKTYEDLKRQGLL
UniProt P08579, whole entry: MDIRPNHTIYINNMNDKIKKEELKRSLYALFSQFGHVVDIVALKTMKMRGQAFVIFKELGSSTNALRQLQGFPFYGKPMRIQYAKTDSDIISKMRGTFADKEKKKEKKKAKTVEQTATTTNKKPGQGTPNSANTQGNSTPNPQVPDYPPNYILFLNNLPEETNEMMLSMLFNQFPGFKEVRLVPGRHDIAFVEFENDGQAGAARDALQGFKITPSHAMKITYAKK
UniProt Q01105, whole entry: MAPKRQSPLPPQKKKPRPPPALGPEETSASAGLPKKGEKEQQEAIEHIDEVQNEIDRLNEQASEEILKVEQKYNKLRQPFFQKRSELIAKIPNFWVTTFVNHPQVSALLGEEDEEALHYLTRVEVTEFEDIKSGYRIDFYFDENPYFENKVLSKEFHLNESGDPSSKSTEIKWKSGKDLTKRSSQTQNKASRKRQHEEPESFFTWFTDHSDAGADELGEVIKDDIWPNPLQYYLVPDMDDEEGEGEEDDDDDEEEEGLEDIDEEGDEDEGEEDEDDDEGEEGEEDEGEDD
UniProt P31641: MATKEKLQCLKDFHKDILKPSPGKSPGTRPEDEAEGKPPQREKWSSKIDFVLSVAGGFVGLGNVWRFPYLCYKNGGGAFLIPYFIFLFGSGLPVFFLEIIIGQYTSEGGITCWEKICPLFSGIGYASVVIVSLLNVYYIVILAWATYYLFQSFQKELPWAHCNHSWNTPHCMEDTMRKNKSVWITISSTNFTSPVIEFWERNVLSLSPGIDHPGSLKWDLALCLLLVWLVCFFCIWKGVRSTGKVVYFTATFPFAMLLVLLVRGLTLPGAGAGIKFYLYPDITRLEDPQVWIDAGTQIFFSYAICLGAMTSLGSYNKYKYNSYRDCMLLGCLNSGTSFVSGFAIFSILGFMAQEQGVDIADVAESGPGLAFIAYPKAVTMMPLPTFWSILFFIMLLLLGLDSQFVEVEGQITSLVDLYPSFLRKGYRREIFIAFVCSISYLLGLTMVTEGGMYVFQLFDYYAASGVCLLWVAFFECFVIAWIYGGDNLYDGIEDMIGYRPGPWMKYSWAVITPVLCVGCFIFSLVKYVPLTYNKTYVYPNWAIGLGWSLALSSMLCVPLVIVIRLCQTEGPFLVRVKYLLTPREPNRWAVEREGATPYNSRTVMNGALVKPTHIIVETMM
UniProt Q9H2G2: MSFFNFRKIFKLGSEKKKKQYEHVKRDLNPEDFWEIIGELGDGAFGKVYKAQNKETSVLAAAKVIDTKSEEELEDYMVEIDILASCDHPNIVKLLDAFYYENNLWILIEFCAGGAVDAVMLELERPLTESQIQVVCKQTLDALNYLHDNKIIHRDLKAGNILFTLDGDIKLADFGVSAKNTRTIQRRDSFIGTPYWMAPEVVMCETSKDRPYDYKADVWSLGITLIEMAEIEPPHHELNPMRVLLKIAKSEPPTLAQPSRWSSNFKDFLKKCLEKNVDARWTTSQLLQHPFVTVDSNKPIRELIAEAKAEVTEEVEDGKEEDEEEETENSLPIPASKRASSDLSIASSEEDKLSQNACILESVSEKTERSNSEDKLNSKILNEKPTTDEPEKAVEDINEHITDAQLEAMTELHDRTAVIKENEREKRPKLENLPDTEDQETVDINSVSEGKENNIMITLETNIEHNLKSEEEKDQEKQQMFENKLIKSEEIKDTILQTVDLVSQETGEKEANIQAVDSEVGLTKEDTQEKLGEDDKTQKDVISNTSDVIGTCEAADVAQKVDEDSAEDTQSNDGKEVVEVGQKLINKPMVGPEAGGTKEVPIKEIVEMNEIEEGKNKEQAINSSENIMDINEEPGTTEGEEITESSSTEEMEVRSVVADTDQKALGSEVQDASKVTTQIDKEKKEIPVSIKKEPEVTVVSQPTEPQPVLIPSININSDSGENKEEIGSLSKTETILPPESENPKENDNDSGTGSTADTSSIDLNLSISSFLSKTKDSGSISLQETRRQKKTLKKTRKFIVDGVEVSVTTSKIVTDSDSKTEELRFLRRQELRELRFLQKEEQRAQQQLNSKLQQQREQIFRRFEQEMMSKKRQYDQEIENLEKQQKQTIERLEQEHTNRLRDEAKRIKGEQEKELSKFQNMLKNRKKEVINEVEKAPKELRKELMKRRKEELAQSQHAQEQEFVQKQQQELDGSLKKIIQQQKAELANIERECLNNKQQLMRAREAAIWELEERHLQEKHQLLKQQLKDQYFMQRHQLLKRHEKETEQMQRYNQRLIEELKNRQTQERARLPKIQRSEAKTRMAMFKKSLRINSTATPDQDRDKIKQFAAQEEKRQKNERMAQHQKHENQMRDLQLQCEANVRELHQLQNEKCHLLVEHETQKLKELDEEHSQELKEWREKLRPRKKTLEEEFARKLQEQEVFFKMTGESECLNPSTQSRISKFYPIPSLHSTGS
UniProt O43826: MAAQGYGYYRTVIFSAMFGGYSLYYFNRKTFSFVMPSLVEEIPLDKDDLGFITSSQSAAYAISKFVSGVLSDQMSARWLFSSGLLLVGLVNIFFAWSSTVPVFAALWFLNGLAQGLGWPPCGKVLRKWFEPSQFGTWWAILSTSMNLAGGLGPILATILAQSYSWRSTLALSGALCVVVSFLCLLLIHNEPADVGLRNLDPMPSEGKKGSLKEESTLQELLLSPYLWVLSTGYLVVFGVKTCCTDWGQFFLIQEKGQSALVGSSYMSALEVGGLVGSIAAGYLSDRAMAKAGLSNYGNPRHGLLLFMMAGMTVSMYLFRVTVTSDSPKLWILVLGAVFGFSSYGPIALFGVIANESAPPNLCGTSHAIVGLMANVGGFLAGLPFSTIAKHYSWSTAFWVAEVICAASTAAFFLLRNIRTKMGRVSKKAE
UniProt O95258: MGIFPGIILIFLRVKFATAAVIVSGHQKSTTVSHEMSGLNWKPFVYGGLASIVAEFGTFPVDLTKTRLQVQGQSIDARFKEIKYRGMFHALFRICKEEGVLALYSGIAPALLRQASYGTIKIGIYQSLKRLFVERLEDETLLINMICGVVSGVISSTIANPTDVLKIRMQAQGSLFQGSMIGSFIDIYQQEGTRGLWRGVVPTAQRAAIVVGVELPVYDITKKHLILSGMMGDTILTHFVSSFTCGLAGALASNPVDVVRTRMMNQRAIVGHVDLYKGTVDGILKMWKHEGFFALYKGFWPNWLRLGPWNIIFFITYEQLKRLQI
UniProt Q6IN85: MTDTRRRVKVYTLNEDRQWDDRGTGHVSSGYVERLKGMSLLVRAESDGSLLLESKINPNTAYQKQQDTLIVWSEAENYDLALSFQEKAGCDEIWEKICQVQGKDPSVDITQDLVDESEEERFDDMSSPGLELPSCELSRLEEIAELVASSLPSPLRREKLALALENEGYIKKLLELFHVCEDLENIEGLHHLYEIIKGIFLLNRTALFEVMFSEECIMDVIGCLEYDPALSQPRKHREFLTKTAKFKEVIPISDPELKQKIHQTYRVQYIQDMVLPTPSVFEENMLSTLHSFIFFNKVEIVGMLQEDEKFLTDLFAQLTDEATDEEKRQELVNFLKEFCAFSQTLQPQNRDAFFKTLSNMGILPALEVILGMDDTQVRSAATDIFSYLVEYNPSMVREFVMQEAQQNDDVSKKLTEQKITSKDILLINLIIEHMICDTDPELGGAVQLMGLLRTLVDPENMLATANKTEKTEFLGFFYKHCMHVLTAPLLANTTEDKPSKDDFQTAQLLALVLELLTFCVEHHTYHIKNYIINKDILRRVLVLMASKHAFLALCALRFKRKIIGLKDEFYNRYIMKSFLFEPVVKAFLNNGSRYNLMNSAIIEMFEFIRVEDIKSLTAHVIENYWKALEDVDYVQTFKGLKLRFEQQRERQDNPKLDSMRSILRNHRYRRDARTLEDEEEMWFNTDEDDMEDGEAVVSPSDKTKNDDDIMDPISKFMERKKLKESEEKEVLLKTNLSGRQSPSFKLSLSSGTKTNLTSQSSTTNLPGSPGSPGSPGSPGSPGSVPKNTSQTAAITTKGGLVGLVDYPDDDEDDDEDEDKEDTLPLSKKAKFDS

compound: COc1ccc(Cn2ccc3cc(C)c(C(=O)NO)cc32)cc1; assay: dose-dependent thermal stabilisation call (2D-TPP, DLPTP, 10% FDR) (binary (1 = stabilised)); higher = stabilised by the compound; details: system: HL-60 intact cells; concentration range 0.04-10 µM
Protocol: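 2D thermal proteome profiling in intact HL-60 cells treated with BRD-3811 (0, 0.04, 0.29, 2, 10 uM) for 90 min at 37 C, then heated 3 min at one of 12 temperatures (42-63.9 C). Soluble protein was quantified by TMT10 MS. The value is the DLPTP call of the paper: dose-dependent thermal stabilisation over all temperatures at 10% FDR (F-test of a dose-response against a flat model); one experiment, one call per tested protein.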

Question: With SMU1 (UniProt Q2TAY7) as the target, how does the “dose-dependent thermal stabilisation call” value read?
Answer: inactive: 0

Question: For SLC25A4 (UniProt P12235), which “dose-dependent thermal stabilisation call” value is on record?
Answer: inactive: 0

Question: With SLC25A24 (UniProt Q6NUK1) as the target, how does the “dose-dependent thermal stabilisation call” value read?
Answer: inactive: 0

Question: With SIRT5 (UniProt Q9NXA8) as the target, how does the “dose-dependent thermal stabilisation call” value read?
Answer: inactive: 0

Question: How did the “dose-dependent thermal stabilisation call” value turn out when SIRT2 (UniProt Q8IXJ6) was run?
Answer: inactive: 0

Question: With SLC7A5 (UniProt Q01650) as the target, how does the “dose-dependent thermal stabilisation call” value read?
Answer: inactive: 0

Question: How did the “dose-dependent thermal stabilisation call” value turn out when SHC1 (UniProt P29353) was run?
Answer: inactive: 0

Question: With SMC6 (UniProt Q96SB8) as the target, how does the “dose-dependent thermal stabilisation call” value read?
Answer: inactive: 0

Question: How did the “dose-dependent thermal stabilisation call” value turn out when SMEK2 (UniProt Q5MIZ7) was run?
Answer: inactive: 0

Question: For SGMS2 (UniProt Q8NHU3), which “dose-dependent thermal stabilisation call” value is on record?
Answer: inactive: 0

Question: How did the “dose-dependent thermal stabilisation call” value turn out when SLC19A1 (UniProt P41440) was run?
Answer: inactive: 0

Question: Which “dose-dependent thermal stabilisation call” value does the source give for SLC38A5 (UniProt Q8WUX1) here?
Answer: inactive: 0

Question: With SNX17 (UniProt Q15036) as the target, how does the “dose-dependent thermal stabilisation call” value read?
Answer: inactive: 0

Question: Which “dose-dependent thermal stabilisation call” value does the source give for SNRK (UniProt Q9NRH2) here?
Answer: inactive: 0

Question: With SGTA (UniProt O43765) as the target, how does the “dose-dependent thermal stabilisation call” value read?
Answer: inactive: 0

Question: How did the “dose-dependent thermal stabilisation call” value turn out when SLC35F2 (UniProt Q8IXU6) was run?
Answer: inactive: 0

Question: For SNX5 (UniProt Q9Y5X3), which “dose-dependent thermal stabilisation call” value is on record?
Answer: inactive: 0

Question: With SFRS18 (UniProt Q8TF01) as the target, how does the “dose-dependent thermal stabilisation call” value read?
Answer: inactive: 0

Question: For SLC17A5 (UniProt Q9NRA2), which “dose-dependent thermal stabilisation call” value is on record?
Answer: inactive: 0

Question: How did the “dose-dependent thermal stabilisation call” value turn out when SMG7 (UniProt Q92540) was run?
Answer: inactive: 0

Question: How did the “dose-dependent thermal stabilisation call” value turn out when SLC38A1 (UniProt Q9H2H9) was run?
Answer: inactive: 0

Question: With SLC25A22 (UniProt Q9H936) as the target, how does the “dose-dependent thermal stabilisation call” value read?
Answer: inactive: 0

Question: With SF3A3 (UniProt Q12874) as the target, how does the “dose-dependent thermal stabilisation call” value read?
Answer: inactive: 0

Question: Which “dose-dependent thermal stabilisation call” value does the source give for SFRS9 (UniProt Q13242) here?
Answer: inactive: 0

Question: Which “dose-dependent thermal stabilisation call” value does the source give for SERPINE2 (UniProt P07093) here?
Answer: inactive: 0

Question: Which “dose-dependent thermal stabilisation call” value does the source give for SNRPB2 (UniProt P08579) here?
Answer: inactive: 0

Question: How did the “dose-dependent thermal stabilisation call” value turn out when SLC39A3 (UniProt Q9BRY0) was run?
Answer: inactive: 0

Question: SET (UniProt Q01105) was tested. Which “dose-dependent thermal stabilisation call” value did it give?
Answer: inactive: 0

Question: Which “dose-dependent thermal stabilisation call” value does the source give for SLC25A40 (UniProt Q8TBP6) here?
Answer: inactive: 0

Question: With SLC16A3 (UniProt O15427) as the target, how does the “dose-dependent thermal stabilisation call” value read?
Answer: inactive: 0

Question: Which “dose-dependent thermal stabilisation call” value does the source give for SLC6A6 (UniProt P31641) here?
Answer: inactive: 0

Question: How did the “dose-dependent thermal stabilisation call” value turn out when SLC29A2 (UniProt Q14542) was run?
Answer: inactive: 0

Question: SLC25A13 (UniProt Q9UJS0) was tested. Which “dose-dependent thermal stabilisation call” value did it give?
Answer: inactive: 0

Question: With SNRNP40 (UniProt Q96DI7) as the target, how does the “dose-dependent thermal stabilisation call” value read?
Answer: inactive: 0

Question: For SNX30 (UniProt Q5VWJ9), which “dose-dependent thermal stabilisation call” value is on record?
Answer: inactive: 0

Question: Which “dose-dependent thermal stabilisation call” value does the source give for SF3B14 (UniProt Q9Y3B4) here?
Answer: inactive: 0

Question: For SLK (UniProt Q9H2G2), which “dose-dependent thermal stabilisation call” value is on record?
Answer: inactive: 0

Question: How did the “dose-dependent thermal stabilisation call” value turn out when SLC37A4 (UniProt O43826) was run?
Answer: inactive: 0

Question: How did the “dose-dependent thermal stabilisation call” value turn out when SLC25A14 (UniProt O95258) was run?
Answer: inactive: 0

Question: For SMEK1 (UniProt Q6IN85), which “dose-dependent thermal stabilisation call” value is on record?
Answer: inactive: 0
